Reference: PubChem BioAssay AID1259254 (NCATS, 2017)
The deposit covers about 59,000 reagents; this is an unselected part. About 1,550 of them (2.6%) count as active. 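G2 share is only a proxy for re-replication; each gene was hit by three separate siRNAs, and active genes were retested.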 The numbers tell different reagents against one gene apart. Further read-outs or replicates are left out here. Not stated in the record: the amount of reagent.

Test: 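Gene knock-downs that lead to re-replication, shown by excess G2 DNA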 (primary screen)
System: human HCT116 colorectal cancer cells
Reagents: single siRNA against human genes
Time to read-out: 3 days
Measurement: 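Nuclei stained with Hoechst and imaged; cell-cycle phase assigned by DNA content; G2 share scaled per plate, non-targeting siRNA 0%, GMNN siRNA 100%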
Direction: G2 robust z-score: higher = more G2 cells, more excess DNA replication
Rule for the call: 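Active siRNAs have a G2 robust z of 5 or more median absolute deviations over the median, which in these data means about 38% or higher of GMNN control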

G2 robust z-score, by gene and reagent
SERPINF2: #1 2.77 inactive; #2 -0.658 inactive; #3 0.832 inactive
RIC3: #1 1.23 inactive; #2 0.524 inactive; #3 -0.894 inactive
PRY: #1 1.24 inactive; #2 -0.932 inactive; #3 -0.939 inactive
LRRC8B: #1 -0.602 inactive; #2 0.514 inactive; #3 1.04 inactive
MICAL3: #1 -0.774 inactive; #2 0.731 inactive; #3 0.981 inactive
SLC2A5: #1 1.66 inactive; #2 0.273 inactive; #3 0.94 inactive

Quoted from the listing for reference:
G2 robust z-score, by gene and reagent
LRRC8B: #2 0.514 inactive; #3 1.04 inactive
MICAL3: #1 -0.774 inactive; #2 0.731 inactive

Additional entries follow:
G2 robust z-score, by gene and reagent
H3Y2: #1 1.41 inactive; #2 -0.874 inactive; #3 -0.58 inactive
SLC45A3: #1 -0.714 inactive; #2 1.47 inactive; #3 -0.537 inactive
NFE2: #1 -0.703 inactive; #2 -0.62 inactive; #3 0.15 inactive
SLC25A6: #1 -1.34 inactive; #2 1.72 inactive; #3 1.11 inactive
